No constants are given. Whether binding was seen depends on the method and setting. In cells and extracts the contact can be indirect. Some results given as binding are weak or reduced against the parent protein; the word gives no strength.
Target: CD44 (human (endogenous in MCF7 or T47D; the line is not named for this experiment)) (UniProt P16070)
Assay: co-IP; RIPA whole-cell extracts pre-cleared with normal IgG and protein A/G agarose beads; anti-CD44 antibody (2-3 ug) with protein A/G agarose at 4 °C overnight; washed three times with PBS; blot with anti-Ezrin or anti-Merlin; cells with or without co-culture with THP-1-derived M2-like macrophages in a non-contact transwell system

Protein sequences, listed by entry. Tags and fused reporters are not part of them. Lines headed by an entry give the natural chain unless they say otherwise; changes in a name come on top. Residues count along the entry.
UniProt P16070, residues 21-742: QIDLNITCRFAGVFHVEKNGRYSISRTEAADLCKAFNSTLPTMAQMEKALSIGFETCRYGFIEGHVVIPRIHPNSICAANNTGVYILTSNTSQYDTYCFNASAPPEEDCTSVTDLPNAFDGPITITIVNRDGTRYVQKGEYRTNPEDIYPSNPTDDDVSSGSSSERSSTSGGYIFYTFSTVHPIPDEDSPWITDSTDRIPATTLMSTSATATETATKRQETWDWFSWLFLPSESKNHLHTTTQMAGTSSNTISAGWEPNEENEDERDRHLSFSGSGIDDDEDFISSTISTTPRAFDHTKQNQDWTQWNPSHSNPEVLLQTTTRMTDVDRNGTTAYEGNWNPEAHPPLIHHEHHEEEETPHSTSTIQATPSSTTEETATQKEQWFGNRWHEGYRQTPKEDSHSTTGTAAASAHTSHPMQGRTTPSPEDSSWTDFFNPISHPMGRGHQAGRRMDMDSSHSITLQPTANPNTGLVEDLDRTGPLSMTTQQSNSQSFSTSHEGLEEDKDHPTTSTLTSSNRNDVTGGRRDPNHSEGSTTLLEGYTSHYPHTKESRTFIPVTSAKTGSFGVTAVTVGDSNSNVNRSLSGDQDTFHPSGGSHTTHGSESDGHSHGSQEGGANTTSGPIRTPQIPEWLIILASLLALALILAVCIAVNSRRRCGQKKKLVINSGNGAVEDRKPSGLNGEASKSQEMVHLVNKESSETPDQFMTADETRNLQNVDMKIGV
UniProt P35240: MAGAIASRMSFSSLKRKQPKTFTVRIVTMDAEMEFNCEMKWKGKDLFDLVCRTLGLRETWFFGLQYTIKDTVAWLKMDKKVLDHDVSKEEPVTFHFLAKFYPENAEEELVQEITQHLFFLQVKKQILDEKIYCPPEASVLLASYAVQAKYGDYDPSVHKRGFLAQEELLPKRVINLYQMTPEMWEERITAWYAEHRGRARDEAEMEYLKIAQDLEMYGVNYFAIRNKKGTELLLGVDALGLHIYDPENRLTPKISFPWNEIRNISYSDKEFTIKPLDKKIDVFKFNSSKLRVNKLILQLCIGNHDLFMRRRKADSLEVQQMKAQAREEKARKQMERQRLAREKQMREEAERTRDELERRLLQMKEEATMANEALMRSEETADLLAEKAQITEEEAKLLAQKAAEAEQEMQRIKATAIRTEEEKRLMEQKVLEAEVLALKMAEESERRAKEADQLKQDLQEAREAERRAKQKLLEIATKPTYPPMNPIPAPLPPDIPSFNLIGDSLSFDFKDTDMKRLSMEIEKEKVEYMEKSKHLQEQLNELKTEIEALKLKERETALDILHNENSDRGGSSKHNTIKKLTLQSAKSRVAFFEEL

Substance: Merlin (from UniProt P35240 1-595)
- binding: binds
